PubChem BioAssay AID1259424 | University of Nebraska Medical Center – 2018
Test: 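Rank knockdowns across the genome by resemblance to the KSR1 depletion profile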 (primary screen). System: human HCT116 colon cancer cells. Reagent: siRNA pool against human genes, 50 nM. Measurement: 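Log2 levels of six mRNAs (branched-DNA multiplex), adjusted by two reference genes and the non-targeting median, then scored against the average KSR1 knockdown pattern as Pearson r and euclidean distance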. Scale: mean correlation with KSR1 profile and KSR1 correlation: higher = expression change more like KSR1 knockdown; mean distance from KSR1 profile: higher = expression change less like KSR1 knockdown.
The whole screen tested about 14,000 reagents; shown is a part drawn at random. 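Higher correlation or smaller distance means closer resemblance to KSR1 loss; control wells, including KSR1 knockdowns, recur on many plates.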 The numbers tell different reagents against one gene apart. Not stated in the record: the time to read-out.

gene symbol | reagent no. | mean correlation with KSR1 profile | mean distance from KSR1 profile | KSR1 correlation, replicate 1 | KSR1 correlation, replicate 2 | KSR1 correlation, replicate 3
NOMO1 | 1 | -0.349 | 3.84 | -0.299 | -0.394 | -0.425
KLK6 | 1 | -0.126 | 3.54 | -0.0835 | 0.21 | -0.19
METTL2B | 1 | -0.404 | 6.11 | 0.745 | -0.421 | 0.645
RAN | 1 | -0.269 | 1.49 | -0.202 | -0.00534 | -0.231
APPL2 | 1 | 0.0212 | 2.49 | 0.19 | -0.0617 | -0.0104
PRDM10 | 1 | 0.144 | 2.62 | -0.0246 | 0.149 | 0.418
SH3GLB1 | 1 | -0.632 | 2.19 | -0.535 | -0.464 | -0.135
DNMT3L | 1 | 0.351 | 0.914 | -0.12 | 0.112 | 0.00431
POLR3A | 1 | -0.449 | 2.22 | -0.348 | -0.383 | -0.474
NUFIP2 | 1 | 0.376 | 1.78 | 0.406 | 0.539 | 0.369
SUN1 | 1 | -0.441 | 2.17 | -0.374 | -0.364 | -0.376
CLDN12 | 1 | -0.77 | 2.31 | -0.502 | -0.847 | -0.896
ITGAL | 1 | -0.771 | 1.64 | -0.566 | -0.774 | -0.49
SF1 | 1 | 0.552 | 2.15 | 0.531 | 0.681 | 0.407
HACL2 | 1 | -0.508 | 1.52 | -0.742 | -0.506 | -0.277
JAM2 | 1 | -0.104 | 1.97 | -0.181 | 0.0468 | 0.0044
ZBED8 | 1 | 0.0494 | 2.29 | -0.105 | 0.118 | 0.0166
BTG4 | 1 | -0.464 | 3.54 | -0.499 | -0.628 | -0.466
ARHGAP20 | 1 | -0.643 | 3.96 | -0.228 | -0.731 | -0.532
INF2 | 1 | -0.442 | 2.48 | -0.374 | -0.684 | -0.435
INF2 | 2 | 0.891 | 1.21 | 0.889 | 0.796 | 0.618
LRCH2 | 1 | -0.434 | 1.49 | -0.317 | -0.457 | -0.458
ZNF536 | 1 | -0.226 | 2.9 | -0.239 | -0.0801 | -0.151
GRID2 | 1 | -0.649 | 1.87 | -0.83 | -0.596 | -0.516
HAUS6 | 1 | 0.268 | 2.75 | 0.167 | 0.437 | 0.0346
DTX2 | 1 | 0.667 | 0.648 | 0.694 | 0.641 | 0.637
TMEM208 | 1 | -0.693 | 2.37 | -0.767 | -0.722 | -0.718
ACAD9 | 1 | 0.258 | 1.09 | 0.231 | 0.278 | 0.411
ARHGAP42 | 1 | -0.135 | 2.11 | -0.0597 | -0.038 | -0.197
ATP5F1A | 1 | 0.0817 | 1.77 | 0.185 | -0.0649 | -0.075
LINC00574 | 1 | 0.627 | 1.39 | 0.644 | 0.419 | 0.642
SLC6A13 | 1 | 0.204 | 0.961 | -0.00837 | 0.0256 | 0.628
CBLL1 | 1 | 0.557 | 4.11 | 0.504 | 0.633 | 0.535
SNHG12 | 1 | 0.392 | 2.73 | 0.433 | 0.362 | 0.00591
LLPH | 1 | 0.461 | 1.99 | 0.262 | 0.476 | 0.59
PRR14 | 1 | 0.295 | 1.96 | 0.267 | -0.148 | 0.137
SNX10 | 1 | -0.0698 | 4.68 | -0.165 | -0.276 | -0.22
LAMTOR1 | 1 | -0.711 | 1.67 | -0.786 | -0.526 | -0.336
KDM2A | 1 | 0.545 | 1.11 | 0.418 | 0.481 | 0.524
GLG1 | 1 | -0.21 | 1.79 | -0.221 | -0.142 | -0.253
LPGAT1 | 1 | -0.823 | 3.05 | -0.622 | -0.946 | -0.685
KIAA0513 | 1 | -0.13 | 2.16 | -0.0542 | 0.185 | -0.201
PTPN4 | 1 | 0.866 | 0.46 | 0.93 | 0.398 | 0.713
SIPA1L3 | 1 | -0.449 | 2.74 | -0.111 | -0.579 | -0.287
CRAT | 1 | -0.696 | 2.87 | -0.758 | -0.783 | -0.694
LINC00308 | 1 | 0.51 | 1.16 | 0.763 | 0.504 | 0.446
KIF2A | 1 | 0.11 | 3.15 | -0.00206 | 0.162 | 0.145
TNFRSF6B | 1 | 0.289 | 2.53 | 0.197 | 0.307 | 0.324
CKAP2 | 1 | -0.188 | 1.39 | -0.291 | -0.827 | -0.404
PRPH2 | 1 | 0.535 | 2.91 | 0.547 | 0.684 | 0.518
ADI1 | 1 | -0.0622 | 2.38 | -0.212 | 0.0631 | 0.0355
RAB11FIP3 | 1 | -0.119 | 2.77 | -0.181 | -0.121 | 0.157
SLC35F2 | 1 | 0.748 | 3.79 | 0.722 | 0.921 | 0.545
CD274 | 1 | 0.118 | 2.54 | 0.143 | -0.153 | -0.123
GBP1 | 1 | 0.439 | 1.71 | 0.46 | 0.393 | 0.356
COL4A2 | 1 | -0.487 | 2.83 | -0.227 | -0.507 | -0.682
RBBP9 | 1 | -0.298 | 2.57 | -0.428 | -0.188 | 0.0725
TMEM164 | 1 | 0.327 | 2.52 | 0.037 | 0.354 | 0.438
LRRC27 | 1 | 0.836 | 0.882 | 0.799 | 0.876 | 0.844
SOAT2 | 1 | 0.406 | 2.43 | 0.36 | 0.427 | 0.358
NOP10 | 1 | -0.0316 | 1.92 | 0.458 | -0.37 | 0.0597
MEFV | 1 | 0.794 | 0.99 | 0.819 | 0.782 | 0.582
SNX8 | 1 | 0.472 | 2.21 | 0.327 | 0.294 | 0.128

3 entries from above, arranged by “KSR1 correlation, replicate 2”, highest first:
gene symbol | reagent no. | mean correlation with KSR1 profile | mean distance from KSR1 profile | KSR1 correlation, replicate 1 | KSR1 correlation, replicate 2 | KSR1 correlation, replicate 3
KLK6 | 1 | -0.126 | 3.54 | -0.0835 | 0.21 | -0.19
RAN | 1 | -0.269 | 1.49 | -0.202 | -0.00534 | -0.231
METTL2B | 1 | -0.404 | 6.11 | 0.745 | -0.421 | 0.645
